Results are given in words; binding and its absence hold for the method and conditions named. A result given as binding can be weak or reduced; the word gives no strength. For some assays here: In cells and extracts the contact can be indirect.
What was measured:
[1] = biological target: His-tagged EF-Tu (purified) (E. coli) (UniProt P0CE47); test: far-Western, overlay or dot blot; purified proteins on 12.5% SDS-PAGE, blotted to nitrocellulose, denatured with guanidine-HCl and renatured, incubated overnight at 4 °C with 20 µg purified Hfq in 20 ml protein-binding buffer; bound Hfq detected with an anti-Hfq polyclonal antibody; both purified
[2] = biological target: HfqH6 (His6-tagged Hfq expressed from pHfqH6) (E. coli) (UniProt P0A6X3); test: cross-linking; in vivo, 0.25 mM DSP in PBS, 1 h at 37 °C, late exponential phase; HfqH6 complexes enriched on Ni-Agarose; with or without 50 mM DTT; SDS-PAGE, 24 gel slices analysed by mass spectrometry; no RNase A treatment

By UniProt entry, the sequences of proteins in these tests, tags left out. Where a name states a change or a piece, a line headed by the entry shows the natural chain unless it says otherwise.
UniProt P0CE47: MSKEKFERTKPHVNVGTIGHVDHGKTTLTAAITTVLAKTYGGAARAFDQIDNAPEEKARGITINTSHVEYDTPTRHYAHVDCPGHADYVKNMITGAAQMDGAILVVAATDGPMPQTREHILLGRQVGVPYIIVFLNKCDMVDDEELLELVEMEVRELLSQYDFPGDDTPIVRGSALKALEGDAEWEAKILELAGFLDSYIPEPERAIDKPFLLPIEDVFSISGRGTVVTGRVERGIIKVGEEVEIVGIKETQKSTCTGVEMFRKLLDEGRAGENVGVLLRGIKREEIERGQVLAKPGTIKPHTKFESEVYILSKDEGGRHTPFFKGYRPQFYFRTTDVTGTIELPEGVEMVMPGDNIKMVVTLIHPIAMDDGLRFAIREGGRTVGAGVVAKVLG
UniProt P0A6X3: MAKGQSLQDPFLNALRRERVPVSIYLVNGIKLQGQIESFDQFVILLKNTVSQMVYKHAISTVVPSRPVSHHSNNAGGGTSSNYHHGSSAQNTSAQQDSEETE

Substance	binding [1]	binding [2]
Ec-HfqHis6 (purified) (from UniProt P0A6X3 1-102)	binds weakly	–
Elongation Factor Tu (from UniProt P0CE47)	–	binds

From article PMC6773851, “Identification of protein-protein and ribonucleoprotein complexes containing Hfq” (Scientific Reports, 2019)
